# The supplement of paper PMC10689618
# Where a name gives a salt, the structure may show the parent alone. Some of the results follow. Many values rest on one well or one pass, so single values are uncertain.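 Primary human fetal astrocytes engulfed labelled rat cortical synaptosomes, measured as a red/green ratio corrected for calcein live-cell signal and scaled to the plate median. Toxicity meant calcein falling over 30%; decreased phagocytosis meant below 70% of median above 5 µM.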
# Legend:
# Conditions in all cases: 24 h
# Human fetal astrocytes [1] = assay: loss of total cells relative to no-compound high-control median (toxicity); higher = more toxic (fewer cells)
# Human fetal astrocytes [2] = assay: as above; remark: listed apart in the source
# Human fetal astrocytes [3] = assay: synaptosome phagocytosis (pHrodo/calcein intensity ratio) relative to plate median of data wells; higher = more phagocytosis
# Human fetal astrocytes [4] = assay: as above; remark: listed apart in the source
Structure (SMILES),loss of total cells (Human fetal astrocytes [1]; 1.39 µM),loss of total cells (Human fetal astrocytes [1]; 2.78 µM),loss of total cells (Human fetal astrocytes [1]; 5.56 µM),loss of total cells (Human fetal astrocytes [1]; 11.11 µM),loss of total cells (Human fetal astrocytes [1]; 22.22 µM),loss of total cells (Human fetal astrocytes [2]; 1.39 µM),loss of total cells (Human fetal astrocytes [2]; 2.78 µM),loss of total cells (Human fetal astrocytes [2]; 5.56 µM),loss of total cells (Human fetal astrocytes [2]; 11.11 µM),loss of total cells (Human fetal astrocytes [2]; 22.22 µM),synaptosome phagocytosis (Human fetal astrocytes [3]; 1.39 µM),synaptosome phagocytosis (Human fetal astrocytes [3]; 2.78 µM),synaptosome phagocytosis (Human fetal astrocytes [3]; 5.56 µM),synaptosome phagocytosis (Human fetal astrocytes [3]; 11.11 µM),synaptosome phagocytosis (Human fetal astrocytes [3]; 22.22 µM),synaptosome phagocytosis (Human fetal astrocytes [4]; 1.39 µM),synaptosome phagocytosis (Human fetal astrocytes [4]; 2.78 µM),synaptosome phagocytosis (Human fetal astrocytes [4]; 5.56 µM),synaptosome phagocytosis (Human fetal astrocytes [4]; 11.11 µM),synaptosome phagocytosis (Human fetal astrocytes [4]; 22.22 µM)
Cc1ccc(C(=O)Nc2ccc(S(=O)(=O)O)c3cc(S(=O)(=O)O)cc(S(=O)(=O)O)c23)cc1NC(=O)c1cccc(NC(=O)Nc2cccc(C(=O)Nc3cc(C(=O)Nc4ccc(S(=O)(=O)O)c5cc(S(=O)(=O)O)cc(S(=O)(=O)O)c45)ccc3C)c2)c1 [Suramin hexasodium],-23.3%,-15.3%,0.6%,11.1%,6.6%,9.1%,-3.4%,3.3%,21.1%,2.3%,95.4%,138%,143%,134%,168%,94.1%,103%,125%,121%,136%
CC1COc2c(N3CCN(C)CC3)c(F)cc3c(=O)c(C(=O)O)cn1c23 (stereo not given) [Ofloxacin],1.4%,7.7%,-1.4%,19%,26.2%,8.3%,-4%,-8.1%,-28.1%,11.9%,132%,124%,106%,85.1%,122%,102%,121%,100%,101%,128%
CNCCCN1c2ccccc2CCc2ccccc21 [Desipramine hydrochloride],-7.9%,-12.8%,13.2%,19.3%,9.6%,-2.1%,-24.1%,-16.7%,8.4%,8.8%,89.6%,72.6%,63.7%,57.4%,34.8%,115%,98.3%,55.8%,81.1%,52.2%
CC(C)(C)c1ccc(C(O)CCCN2CCC(C(O)(c3ccccc3)c3ccccc3)CC2)cc1 (stereo not given) [Terfenadine],-6.5%,-0.9%,-4.5%,-7.3%,5.8%,-47.6%,-23.8%,3.7%,18%,-5.9%,92.6%,97.8%,144%,102%,109%,93%,108%,95.1%,107%,74.6%
O=C(O)c1cccnc1Nc1cccc(C(F)(F)F)c1 [Niflumic acid],-9%,14%,15.5%,7.6%,14%,-1.1%,9.7%,11.6%,-6.3%,-0.8%,126%,97.9%,141%,126%,71.1%,109%,100%,112%,96.6%,131%
CCN(CC)C(=S)SSC(=S)N(CC)CC [Tetraethylthiuram disulfide],32.6%,27.8%,40.4%,40.2%,19.8%,38.3%,41%,14.6%,23.3%,70.2%,22.1%,29.8%,21.5%,38.6%,30.3%,47.3%,26.2%,53.7%,24%,37%
NNCCc1ccccc1 [Phenelzine sulfate],1.6%,-0.9%,-3.9%,4.2%,7.4%,17.4%,-11.3%,12.3%,-23.4%,10.2%,120%,108%,94.3%,124%,96.5%,128%,97%,111%,86.7%,95.7%
N=C(N)NC(=O)c1nc(Cl)c(N)nc1N [Amiloride hydrochloride],5.5%,-14.1%,-19.8%,11.2%,-16.9%,-3.3%,-14.3%,11.7%,1.6%,12.5%,82.3%,90.8%,104%,95.3%,76.4%,102%,95.8%,79.2%,114%,65.1%
Cc1cnc(C(=O)NCCc2ccc(S(=O)(=O)NC(=O)NC3CCCCC3)cc2)cn1 [Glipizide],5.4%,-18.8%,-3.3%,-30.9%,-11.2%,17.7%,-54.8%,18.6%,-3%,17.1%,101%,78.2%,108%,81.8%,109%,147%,101%,120%,90.1%,91.3%
CN(C)[C@@H]1C(=O)C(C(N)=O)=C(O)[C@@]2(O)C(=O)C3=C(O)c4c(O)ccc(Cl)c4[C@@H](O)[C@H]3C[C@@H]12 [Demeclocycline hydrochloride],1.3%,-7.7%,-0.8%,-0.4%,-1.6%,5.6%,-30.2%,-29.3%,2.6%,22.2%,105%,99.3%,103%,119%,118%,91.9%,122%,99.5%,118%,129%
Cc1cc(N)c2ccccc2[n+]1CCCCCCCCCC[n+]1c(C)cc(N)c2ccccc21 [Dequalinium dichloride],-13%,-27.4%,11.5%,3.1%,8.8%,10.5%,22.7%,-3.6%,11.3%,44.7%,120%,116%,63.1%,51.8%,43.8%,73.9%,89%,54.6%,55.1%,41.1%
O=C1NCC2(CCN(CCc3ccccc3)CC2)O1 [Fenspiride hydrochloride],-1.3%,-10.3%,9.1%,-11.2%,-8.8%,-2.5%,-30.8%,0.9%,0.8%,-0.6%,106%,98.6%,100%,105%,106%,77.9%,126%,118%,110%,114%
N=c1nc(N2CCCCC2)cc(N)n1O [Minoxidil],-0.5%,-12.2%,13.6%,-7.6%,2.8%,-34.9%,-17.4%,11.1%,2.3%,10.8%,114%,106%,128%,124%,143%,98.9%,76.3%,72.9%,90.1%,92.8%
Clc1ccc(Cn2c(CN3CCCC3)nc3ccccc32)cc1 [Clemizole hydrochloride],-16.9%,-25.6%,-3.2%,-11.2%,4.1%,18.4%,3.2%,5.8%,8.8%,25%,122%,76.3%,83.4%,74%,87.7%,139%,100%,103%,101%,109%
Cc1cnc(NC(=O)C2=C(O)c3ccccc3S(=O)(=O)N2C)s1 [Meloxicam sodium],-5.2%,10.4%,15.5%,1%,22.4%,20.2%,-23.8%,-6.2%,47.5%,2.8%,126%,81.6%,117%,110%,99.6%,73.1%,107%,78.7%,114%,93.8%
